{"source": "the supplement of paper PMC11438910", "test_in_all_cases": "fluorescence intensity of antibody binding to polysaccharide-coupled beads; higher = stronger binding", "key": {"[1]": {"target": "pneumococcal polysaccharide Pn6A"}, "[2]": {"target": "pneumococcal polysaccharide Pn6B"}, "[3]": {"target": "pneumococcal polysaccharide Pn6C"}, "[4]": {"target": "pneumococcal polysaccharide Pn6D"}, "[5]": {"target": "pneumococcal polysaccharide Pn7A"}, "[6]": {"target": "pneumococcal polysaccharide Pn7B"}, "[7]": {"target": "pneumococcal polysaccharide Pn7C"}, "[8]": {"target": "pneumococcal polysaccharide Pn7F"}, "[9]": {"target": "pneumococcal polysaccharide Pn8"}, "[10]": {"target": "pneumococcal polysaccharide Pn9A"}, "[11]": {"target": "pneumococcal polysaccharide Pn9L"}, "[12]": {"target": "pneumococcal polysaccharide Pn9N"}, "[13]": {"details": "antibody concentration 81.7561 ng/mL"}, "[14]": {"details": "antibody concentration 437.17 ng/mL"}, "[15]": {"details": "antibody concentration 2337.65 ng/mL"}, "[16]": {"details": "antibody concentration 12500 ng/mL"}, "[17]": {"details": "antibody concentration 0.1 ng/mL"}, "[18]": {"details": "antibody concentration 0.534724 ng/mL"}, "[19]": {"details": "antibody concentration 2.8593 ng/mL"}, "[20]": {"details": "antibody concentration 15.2894 ng/mL"}}, "note": "The list shows a part of the results. The signal is at background level for most entries.", "data": [{"binder": "4-99.1 (protein) chain 1: QVQLQESGPGLVKPSETLSLTCAVSGDSISSGYFWGWIRQPPGKGLEYIGYISGESGNTYDNPSLKSRVTISKDTSKNQFSLNLRSVTAADTAVYYCARRTVYIGFDYWGQGVLVTVSS chain 2: QAAPTQPPSVSGSPGQSVTISCTGTSSDIGYYNAVSWYQQHPGKAPKLMIYEVSKRPSGVSDRFSGSKSGTTASLTISGLQAEDEADYYCSSYAGTNTYIFGAGTRLTVL", "values": [{"measurement": "fluorescence intensity", "setting": "[1]; [13]", "result": 23, "unit": "MFI"}, {"measurement": "fluorescence intensity", "setting": "[1]; [14]", "result": 25, "unit": "MFI"}, {"measurement": "fluorescence intensity", "setting": "[1]; [15]", "result": 29, "unit": "MFI"}, {"measurement": "fluorescence intensity", "setting": "[1]; [16]", "result": 33.8, "unit": "MFI"}, {"measurement": "fluorescence intensity", "setting": "[2]; [17]", "result": 21, "unit": "MFI"}, {"measurement": "fluorescence intensity", "setting": "[2]; [18]", "result": 18.5, "unit": "MFI"}, {"measurement": "fluorescence intensity", "setting": "[2]; [19]", "result": 18, "unit": "MFI"}, {"measurement": "fluorescence intensity", "setting": "[2]; [20]", "result": 19.2, "unit": "MFI"}, {"measurement": "fluorescence intensity", "setting": "[2]; [13]", "result": 20, "unit": "MFI"}, {"measurement": "fluorescence intensity", "setting": "[2]; [14]", "result": 20.5, "unit": "MFI"}, {"measurement": "fluorescence intensity", "setting": "[2]; [15]", "result": 28.8, "unit": "MFI"}, {"measurement": "fluorescence intensity", "setting": "[2]; [16]", "result": 33.5, "unit": "MFI"}, {"measurement": "fluorescence intensity", "setting": "[3]; [17]", "result": 18.2, "unit": "MFI"}, {"measurement": "fluorescence intensity", "setting": "[3]; [18]", "result": 28.5, "unit": "MFI"}, {"measurement": "fluorescence intensity", "setting": "[3]; [19]", "result": 67.2, "unit": "MFI"}, {"measurement": "fluorescence intensity", "setting": "[3]; [20]", "result": 89, "unit": "MFI"}, {"measurement": "fluorescence intensity", "setting": "[3]; [13]", "result": 73, "unit": "MFI"}, {"measurement": "fluorescence intensity", "setting": "[3]; [14]", "result": 90.5, "unit": "MFI"}, {"measurement": "fluorescence intensity", "setting": "[3]; [15]", "result": 75.8, "unit": "MFI"}, {"measurement": "fluorescence intensity", "setting": "[3]; [16]", "result": 124, "unit": "MFI"}, {"measurement": "fluorescence intensity", "setting": "[4]; [17]", "result": 18.5, "unit": "MFI"}, {"measurement": "fluorescence intensity", "setting": "[4]; [18]", "result": 16.5, "unit": "MFI"}, {"measurement": "fluorescence intensity", "setting": "[4]; [19]", "result": 15.8, "unit": "MFI"}, {"measurement": "fluorescence intensity", "setting": "[4]; [20]", "result": 19, "unit": "MFI"}, {"measurement": "fluorescence intensity", "setting": "[4]; [13]", "result": 19, "unit": "MFI"}, {"measurement": "fluorescence intensity", "setting": "[4]; [14]", "result": 17.8, "unit": "MFI"}, {"measurement": "fluorescence intensity", "setting": "[4]; [15]", "result": 21, "unit": "MFI"}, {"measurement": "fluorescence intensity", "setting": "[4]; [16]", "result": 26.2, "unit": "MFI"}, {"measurement": "fluorescence intensity", "setting": "[5]; [17]", "result": 20, "unit": "MFI"}, {"measurement": "fluorescence intensity", "setting": "[5]; [18]", "result": 20.5, "unit": "MFI"}, {"measurement": "fluorescence intensity", "setting": "[5]; [19]", "result": 22, "unit": "MFI"}, {"measurement": "fluorescence intensity", "setting": "[5]; [20]", "result": 20, "unit": "MFI"}, {"measurement": "fluorescence intensity", "setting": "[5]; [13]", "result": 21.2, "unit": "MFI"}, {"measurement": "fluorescence intensity", "setting": "[5]; [14]", "result": 25, "unit": "MFI"}, {"measurement": "fluorescence intensity", "setting": "[5]; [15]", "result": 64.5, "unit": "MFI"}, {"measurement": "fluorescence intensity", "setting": "[5]; [16]", "result": 518, "unit": "MFI"}, {"measurement": "fluorescence intensity", "setting": "[6]; [17]", "result": 16.5, "unit": "MFI"}, {"measurement": "fluorescence intensity", "setting": "[6]; [18]", "result": 15.5, "unit": "MFI"}, {"measurement": "fluorescence intensity", "setting": "[6]; [19]", "result": 16.8, "unit": "MFI"}, {"measurement": "fluorescence intensity", "setting": "[6]; [20]", "result": 16.5, "unit": "MFI"}, {"measurement": "fluorescence intensity", "setting": "[6]; [13]", "result": 16, "unit": "MFI"}, {"measurement": "fluorescence intensity", "setting": "[6]; [14]", "result": 17.5, "unit": "MFI"}, {"measurement": "fluorescence intensity", "setting": "[6]; [15]", "result": 25.5, "unit": "MFI"}, {"measurement": "fluorescence intensity", "setting": "[6]; [16]", "result": 71, "unit": "MFI"}, {"measurement": "fluorescence intensity", "setting": "[7]; [17]", "result": 15.5, "unit": "MFI"}, {"measurement": "fluorescence intensity", "setting": "[7]; [18]", "result": 18, "unit": "MFI"}, {"measurement": "fluorescence intensity", "setting": "[7]; [19]", "result": 17.5, "unit": "MFI"}, {"measurement": "fluorescence intensity", "setting": "[7]; [20]", "result": 15.5, "unit": "MFI"}, {"measurement": "fluorescence intensity", "setting": "[7]; [13]", "result": 16, "unit": "MFI"}, {"measurement": "fluorescence intensity", "setting": "[7]; [14]", "result": 16.5, "unit": "MFI"}, {"measurement": "fluorescence intensity", "setting": "[7]; [15]", "result": 22, "unit": "MFI"}, {"measurement": "fluorescence intensity", "setting": "[7]; [16]", "result": 64.8, "unit": "MFI"}, {"measurement": "fluorescence intensity", "setting": "[8]; [17]", "result": 14.5, "unit": "MFI"}, {"measurement": "fluorescence intensity", "setting": "[8]; [18]", "result": 15.5, "unit": "MFI"}, {"measurement": "fluorescence intensity", "setting": "[8]; [19]", "result": 16, "unit": "MFI"}, {"measurement": "fluorescence intensity", "setting": "[8]; [20]", "result": 15, "unit": "MFI"}, {"measurement": "fluorescence intensity", "setting": "[8]; [13]", "result": 15, "unit": "MFI"}, {"measurement": "fluorescence intensity", "setting": "[8]; [14]", "result": 18.5, "unit": "MFI"}, {"measurement": "fluorescence intensity", "setting": "[8]; [15]", "result": 44.8, "unit": "MFI"}, {"measurement": "fluorescence intensity", "setting": "[8]; [16]", "result": 460, "unit": "MFI"}, {"measurement": "fluorescence intensity", "setting": "[9]; [17]", "result": 21, "unit": "MFI"}, {"measurement": "fluorescence intensity", "setting": "[9]; [18]", "result": 22.5, "unit": "MFI"}, {"measurement": "fluorescence intensity", "setting": "[9]; [19]", "result": 22, "unit": "MFI"}, {"measurement": "fluorescence intensity", "setting": "[9]; [20]", "result": 22.5, "unit": "MFI"}, {"measurement": "fluorescence intensity", "setting": "[9]; [13]", "result": 22, "unit": "MFI"}, {"measurement": "fluorescence intensity", "setting": "[9]; [14]", "result": 24.5, "unit": "MFI"}, {"measurement": "fluorescence intensity", "setting": "[9]; [15]", "result": 31, "unit": "MFI"}, {"measurement": "fluorescence intensity", "setting": "[9]; [16]", "result": 44.5, "unit": "MFI"}, {"measurement": "fluorescence intensity", "setting": "[10]; [17]", "result": 19, "unit": "MFI"}, {"measurement": "fluorescence intensity", "setting": "[10]; [18]", "result": 18.5, "unit": "MFI"}, {"measurement": "fluorescence intensity", "setting": "[10]; [19]", "result": 18.5, "unit": "MFI"}, {"measurement": "fluorescence intensity", "setting": "[10]; [20]", "result": 21, "unit": "MFI"}, {"measurement": "fluorescence intensity", "setting": "[10]; [13]", "result": 20, "unit": "MFI"}, {"measurement": "fluorescence intensity", "setting": "[10]; [14]", "result": 21, "unit": "MFI"}, {"measurement": "fluorescence intensity", "setting": "[10]; [15]", "result": 29, "unit": "MFI"}, {"measurement": "fluorescence intensity", "setting": "[10]; [16]", "result": 85, "unit": "MFI"}, {"measurement": "fluorescence intensity", "setting": "[11]; [17]", "result": 19, "unit": "MFI"}, {"measurement": "fluorescence intensity", "setting": "[11]; [18]", "result": 17.5, "unit": "MFI"}, {"measurement": "fluorescence intensity", "setting": "[11]; [19]", "result": 17, "unit": "MFI"}, {"measurement": "fluorescence intensity", "setting": "[11]; [20]", "result": 17.5, "unit": "MFI"}, {"measurement": "fluorescence intensity", "setting": "[11]; [13]", "result": 16.5, "unit": "MFI"}, {"measurement": "fluorescence intensity", "setting": "[11]; [14]", "result": 19, "unit": "MFI"}, {"measurement": "fluorescence intensity", "setting": "[11]; [15]", "result": 22, "unit": "MFI"}, {"measurement": "fluorescence intensity", "setting": "[11]; [16]", "result": 46.5, "unit": "MFI"}, {"measurement": "fluorescence intensity", "setting": "[12]; [17]", "result": 16, "unit": "MFI"}, {"measurement": "fluorescence intensity", "setting": "[12]; [18]", "result": 16, "unit": "MFI"}, {"measurement": "fluorescence intensity", "setting": "[12]; [19]", "result": 15.5, "unit": "MFI"}, {"measurement": "fluorescence intensity", "setting": "[12]; [20]", "result": 16.5, "unit": "MFI"}, {"measurement": "fluorescence intensity", "setting": "[12]; [13]", "result": 16.2, "unit": "MFI"}, {"measurement": "fluorescence intensity", "setting": "[12]; [14]", "result": 17.5, "unit": "MFI"}]}]}
